From article PMC4245242
These are yes or no findings as the source states them, for the method shown. For some assays here: Binding seen in cells or lysates may run through a third protein. Some results given as binding are weak or reduced against the parent protein; the word gives no strength.

Sequences of proteins named here, by UniProt entry; tags and fusion partners are left off. Residues count along the entry.
UniProt P70205, residues 21-496: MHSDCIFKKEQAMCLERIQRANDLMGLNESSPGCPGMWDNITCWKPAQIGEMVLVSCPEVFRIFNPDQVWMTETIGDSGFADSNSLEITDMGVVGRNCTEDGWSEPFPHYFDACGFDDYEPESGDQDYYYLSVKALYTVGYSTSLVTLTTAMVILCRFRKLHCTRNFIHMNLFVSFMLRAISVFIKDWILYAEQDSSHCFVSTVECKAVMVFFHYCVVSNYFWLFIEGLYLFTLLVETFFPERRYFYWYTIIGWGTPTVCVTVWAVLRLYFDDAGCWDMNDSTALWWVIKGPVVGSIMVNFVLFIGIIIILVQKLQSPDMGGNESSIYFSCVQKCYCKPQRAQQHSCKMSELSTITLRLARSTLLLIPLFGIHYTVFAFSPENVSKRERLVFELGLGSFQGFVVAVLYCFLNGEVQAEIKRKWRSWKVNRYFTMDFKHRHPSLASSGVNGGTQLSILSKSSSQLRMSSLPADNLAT

Assays:
[1] = target: PAC1, pituitary adenylate cyclase-activating polypeptide (PACAP)-preferring receptor, wild type, mouse Normal/Hop isoform (mouse) (UniProt P70205); assay: split reporter; BiFC seen by fluorescence and confocal microscopy: CHO cells co-transfected with the Y/N- and Y/C-tagged receptor, images 0, 0.5 and 2 h after serum withdrawal
[2] = target: PAC1, pituitary adenylate cyclase-activating polypeptide (PACAP)-preferring receptor, wild type, mouse Normal/Hop isoform (mouse) (UniProt P70205); assay: FRET or BRET; static BRET in CHO cells: a total of 1.0 µg of DNA per well divided equally among the constructs; background: signal between PAC-Rlu and soluble YFP; with or without NAC (10 nM)
[3] = target: PAC1, pituitary adenylate cyclase-activating polypeptide (PACAP)-preferring receptor, wild type, mouse Normal/Hop isoform (mouse) (UniProt P70205); assay: non-reducing SDS-PAGE and western blot; lysate of cells expressing PAC-YFP, SDS-PAGE under non-reducing conditions, blot with a goat polyclonal IgG against the C-terminus of PAC1; with or without NAC (10 nM)
[4] = target: PAC1, pituitary adenylate cyclase-activating polypeptide (PACAP)-preferring receptor, wild type, mouse Normal/Hop isoform (mouse) (UniProt P70205); assay: FRET or BRET; saturation BRET in CHO cells: constant amount of Rlu-tagged donor construct, increasing amounts of YFP-tagged acceptor construct, coelenterazine h 5 µM, 48 h after transfection; with or without NAC (10 nM, 2 h, 4°C)
[5] = target: PAC1, pituitary adenylate cyclase-activating polypeptide (PACAP)-preferring receptor, wild type, mouse Normal/Hop isoform (mouse) (UniProt P70205); assay: split reporter; BiFC read in a plate reader: CHO cells in 96-well plates co-transfected with the Y/N- and Y/C-tagged receptor, YFP fluorescence 48 h after transfection (excitation 480±30 nm, emission 535±40 nm); with or without NAC (10 nM, 2 h, 4°C)

Measured: binding

PAC1, pituitary adenylate cyclase-activating polypeptide (PACAP)-preferring receptor, wild type, mouse Normal/Hop isoform (from UniProt P70205 21-496)
binds: all assays above
